{"source": "patent US20210206820A1", "about": "(Purdue Research Foundation, priority 2018, published 2021)", "tested_on": "fracture callus of fractured femur", "assay": "Femur fracture model, microCT of the fracture callus (BV/TV, TbTh, BV, TbSp)", "assay_type": "in vivo, Swiss Webster mice", "details": "4 weeks, daily sc, various concentrations from 1 to 100 nmol/day", "source_text": "All in vivo data included herein are from swiss Webster mice. All mice received an osteotomy on their right femur and received subcutaneous drug administration daily for either 2, 3 or 4 weeks, as indicated, for each compound. 1× concentration represents 1 nmol/day, 10× represents 10 nmol/day, 100× represents 100 nmol/day most studies have an n of 5.\nThe term “BV/TV” means the bone volume divided by total volume of the 100 thickest micro CT slices of the fracture callus.\nThe term “TbTh” means the trabecular thickness of the 100 thickest micro CT slices of the fracture callus.\nThe term “[…]” means the overall bone volume of the 100 thickest micro CT slices of the fracture callus. […]\nThe targeted conjugates were synthesized using standard Fmoc solid-phase peptide synthesis, as described above. […] Expression levels of ALP, RUNx2 (transcription factor for osteoblast differentiation), osterix (OSX), osteopontin (OPN), collagen 1A (Col-1A), OPG, RANKL, sclerostin gene (SOST), and OC were quantified via quantitative reverse transcription polymerase chain reaction (RT-qPCR). […] Fracture healing was assessed using microCT (Scanco Medical Ag). Morphometric parameters were quantified in the 100 widest slices of the fracture callus. Trabecular thickness (TbTh), trabecular spacing (TbSp), total volume (TV), and volume of calcified callus (BV) were calculated. […]"}
{"substance": "TP508 D10: Thrombin fragment TP508 conjugated with 10 aspartate acids, SEQ ID NO: 12 DDDDDDDDDDAGYKPDEGKRGDACEGDSGGPFV (TP 508_D10)", "values": [{"measurement": "BV/TV", "result": "dose dependent manner"}]}
